Measurements from the supplement of paper PMC12823440, “Inhibitors supercharge kinase turnover through native proteolytic circuits” (Nature, 2025).
Where a name gives a salt, the structure may show the parent alone. The list shows a part of the results. Hit calls seldom repeat between salt and free forms of one compound.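 Kinases were expressed as nanoluciferase fusions in K562 cells and luminescence was read every 4 h between 2 and 18 h as percent of control, DMSO set to 100% and a positive control to 0%. A time point counts as decreased when the signal drops significantly (2 sigma). The hit call is the authors' own, does not follow from the count of time points alone, and its rule is not shown.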

By UniProt entry, the sequences of proteins in these tests, tags left out. Where a name states a change or a piece, a line headed by the entry shows the natural chain unless it says otherwise.
UniProt O96013: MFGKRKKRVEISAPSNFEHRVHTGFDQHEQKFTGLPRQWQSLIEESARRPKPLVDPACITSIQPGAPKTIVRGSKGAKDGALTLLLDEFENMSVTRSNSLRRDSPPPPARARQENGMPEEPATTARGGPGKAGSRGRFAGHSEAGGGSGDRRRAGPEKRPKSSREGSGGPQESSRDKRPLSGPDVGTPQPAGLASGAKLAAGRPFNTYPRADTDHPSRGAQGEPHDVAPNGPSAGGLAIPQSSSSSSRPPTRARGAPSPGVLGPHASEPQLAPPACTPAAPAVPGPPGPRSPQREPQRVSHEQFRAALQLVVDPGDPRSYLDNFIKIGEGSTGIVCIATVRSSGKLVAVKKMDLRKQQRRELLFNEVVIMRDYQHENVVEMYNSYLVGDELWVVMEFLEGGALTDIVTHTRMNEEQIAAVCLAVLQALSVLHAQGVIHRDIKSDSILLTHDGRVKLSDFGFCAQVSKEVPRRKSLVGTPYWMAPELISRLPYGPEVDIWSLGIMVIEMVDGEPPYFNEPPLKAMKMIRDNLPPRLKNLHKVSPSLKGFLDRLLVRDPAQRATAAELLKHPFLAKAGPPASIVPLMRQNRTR
UniProt Q96KB5: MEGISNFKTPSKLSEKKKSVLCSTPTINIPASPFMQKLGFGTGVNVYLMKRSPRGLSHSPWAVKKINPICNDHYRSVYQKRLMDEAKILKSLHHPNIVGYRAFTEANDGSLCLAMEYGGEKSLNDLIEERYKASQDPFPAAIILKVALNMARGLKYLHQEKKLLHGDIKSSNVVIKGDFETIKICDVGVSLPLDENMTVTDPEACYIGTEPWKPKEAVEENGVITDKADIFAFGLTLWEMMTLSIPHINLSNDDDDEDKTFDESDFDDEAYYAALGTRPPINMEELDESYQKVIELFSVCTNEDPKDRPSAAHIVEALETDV
UniProt P09619, whole entry: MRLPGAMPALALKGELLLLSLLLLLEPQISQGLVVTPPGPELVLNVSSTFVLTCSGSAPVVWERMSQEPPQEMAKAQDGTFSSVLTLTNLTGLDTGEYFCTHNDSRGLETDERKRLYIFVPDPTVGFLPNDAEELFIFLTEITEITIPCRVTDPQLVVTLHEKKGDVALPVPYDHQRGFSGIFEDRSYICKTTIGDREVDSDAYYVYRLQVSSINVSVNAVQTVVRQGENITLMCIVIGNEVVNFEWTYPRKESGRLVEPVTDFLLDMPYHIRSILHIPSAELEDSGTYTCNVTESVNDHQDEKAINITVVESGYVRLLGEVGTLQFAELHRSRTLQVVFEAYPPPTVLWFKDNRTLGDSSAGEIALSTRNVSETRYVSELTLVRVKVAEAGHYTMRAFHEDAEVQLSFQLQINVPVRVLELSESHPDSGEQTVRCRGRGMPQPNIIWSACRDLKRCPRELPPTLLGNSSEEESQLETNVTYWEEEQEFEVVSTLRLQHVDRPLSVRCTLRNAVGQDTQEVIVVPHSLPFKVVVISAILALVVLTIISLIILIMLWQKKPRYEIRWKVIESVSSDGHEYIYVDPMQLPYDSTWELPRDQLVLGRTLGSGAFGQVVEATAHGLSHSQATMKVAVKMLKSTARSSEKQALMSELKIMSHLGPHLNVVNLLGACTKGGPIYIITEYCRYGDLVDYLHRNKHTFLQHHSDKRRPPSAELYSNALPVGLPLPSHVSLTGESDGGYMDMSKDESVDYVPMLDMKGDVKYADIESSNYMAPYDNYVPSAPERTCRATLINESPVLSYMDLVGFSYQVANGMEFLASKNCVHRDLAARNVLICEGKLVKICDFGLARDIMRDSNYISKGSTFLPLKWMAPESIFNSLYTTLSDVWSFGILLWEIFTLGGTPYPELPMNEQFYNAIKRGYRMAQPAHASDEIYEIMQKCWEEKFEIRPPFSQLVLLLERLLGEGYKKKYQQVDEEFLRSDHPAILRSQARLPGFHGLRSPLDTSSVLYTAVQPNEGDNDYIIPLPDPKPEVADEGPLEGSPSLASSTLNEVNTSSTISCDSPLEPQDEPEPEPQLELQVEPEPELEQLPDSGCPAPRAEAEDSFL
UniProt Q15118, whole entry, looked up: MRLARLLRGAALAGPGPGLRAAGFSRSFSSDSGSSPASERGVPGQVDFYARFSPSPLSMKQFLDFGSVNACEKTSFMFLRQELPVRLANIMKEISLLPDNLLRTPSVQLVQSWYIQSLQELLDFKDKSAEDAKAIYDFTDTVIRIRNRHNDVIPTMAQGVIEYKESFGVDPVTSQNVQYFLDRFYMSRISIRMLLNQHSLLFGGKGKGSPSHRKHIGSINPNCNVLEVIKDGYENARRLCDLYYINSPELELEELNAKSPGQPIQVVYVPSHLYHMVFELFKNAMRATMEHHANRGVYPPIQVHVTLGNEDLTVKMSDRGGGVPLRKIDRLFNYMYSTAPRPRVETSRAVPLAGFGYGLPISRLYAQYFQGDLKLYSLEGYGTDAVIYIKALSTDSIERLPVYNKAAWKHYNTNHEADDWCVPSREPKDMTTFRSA
UniProt P42356, whole entry, looked up: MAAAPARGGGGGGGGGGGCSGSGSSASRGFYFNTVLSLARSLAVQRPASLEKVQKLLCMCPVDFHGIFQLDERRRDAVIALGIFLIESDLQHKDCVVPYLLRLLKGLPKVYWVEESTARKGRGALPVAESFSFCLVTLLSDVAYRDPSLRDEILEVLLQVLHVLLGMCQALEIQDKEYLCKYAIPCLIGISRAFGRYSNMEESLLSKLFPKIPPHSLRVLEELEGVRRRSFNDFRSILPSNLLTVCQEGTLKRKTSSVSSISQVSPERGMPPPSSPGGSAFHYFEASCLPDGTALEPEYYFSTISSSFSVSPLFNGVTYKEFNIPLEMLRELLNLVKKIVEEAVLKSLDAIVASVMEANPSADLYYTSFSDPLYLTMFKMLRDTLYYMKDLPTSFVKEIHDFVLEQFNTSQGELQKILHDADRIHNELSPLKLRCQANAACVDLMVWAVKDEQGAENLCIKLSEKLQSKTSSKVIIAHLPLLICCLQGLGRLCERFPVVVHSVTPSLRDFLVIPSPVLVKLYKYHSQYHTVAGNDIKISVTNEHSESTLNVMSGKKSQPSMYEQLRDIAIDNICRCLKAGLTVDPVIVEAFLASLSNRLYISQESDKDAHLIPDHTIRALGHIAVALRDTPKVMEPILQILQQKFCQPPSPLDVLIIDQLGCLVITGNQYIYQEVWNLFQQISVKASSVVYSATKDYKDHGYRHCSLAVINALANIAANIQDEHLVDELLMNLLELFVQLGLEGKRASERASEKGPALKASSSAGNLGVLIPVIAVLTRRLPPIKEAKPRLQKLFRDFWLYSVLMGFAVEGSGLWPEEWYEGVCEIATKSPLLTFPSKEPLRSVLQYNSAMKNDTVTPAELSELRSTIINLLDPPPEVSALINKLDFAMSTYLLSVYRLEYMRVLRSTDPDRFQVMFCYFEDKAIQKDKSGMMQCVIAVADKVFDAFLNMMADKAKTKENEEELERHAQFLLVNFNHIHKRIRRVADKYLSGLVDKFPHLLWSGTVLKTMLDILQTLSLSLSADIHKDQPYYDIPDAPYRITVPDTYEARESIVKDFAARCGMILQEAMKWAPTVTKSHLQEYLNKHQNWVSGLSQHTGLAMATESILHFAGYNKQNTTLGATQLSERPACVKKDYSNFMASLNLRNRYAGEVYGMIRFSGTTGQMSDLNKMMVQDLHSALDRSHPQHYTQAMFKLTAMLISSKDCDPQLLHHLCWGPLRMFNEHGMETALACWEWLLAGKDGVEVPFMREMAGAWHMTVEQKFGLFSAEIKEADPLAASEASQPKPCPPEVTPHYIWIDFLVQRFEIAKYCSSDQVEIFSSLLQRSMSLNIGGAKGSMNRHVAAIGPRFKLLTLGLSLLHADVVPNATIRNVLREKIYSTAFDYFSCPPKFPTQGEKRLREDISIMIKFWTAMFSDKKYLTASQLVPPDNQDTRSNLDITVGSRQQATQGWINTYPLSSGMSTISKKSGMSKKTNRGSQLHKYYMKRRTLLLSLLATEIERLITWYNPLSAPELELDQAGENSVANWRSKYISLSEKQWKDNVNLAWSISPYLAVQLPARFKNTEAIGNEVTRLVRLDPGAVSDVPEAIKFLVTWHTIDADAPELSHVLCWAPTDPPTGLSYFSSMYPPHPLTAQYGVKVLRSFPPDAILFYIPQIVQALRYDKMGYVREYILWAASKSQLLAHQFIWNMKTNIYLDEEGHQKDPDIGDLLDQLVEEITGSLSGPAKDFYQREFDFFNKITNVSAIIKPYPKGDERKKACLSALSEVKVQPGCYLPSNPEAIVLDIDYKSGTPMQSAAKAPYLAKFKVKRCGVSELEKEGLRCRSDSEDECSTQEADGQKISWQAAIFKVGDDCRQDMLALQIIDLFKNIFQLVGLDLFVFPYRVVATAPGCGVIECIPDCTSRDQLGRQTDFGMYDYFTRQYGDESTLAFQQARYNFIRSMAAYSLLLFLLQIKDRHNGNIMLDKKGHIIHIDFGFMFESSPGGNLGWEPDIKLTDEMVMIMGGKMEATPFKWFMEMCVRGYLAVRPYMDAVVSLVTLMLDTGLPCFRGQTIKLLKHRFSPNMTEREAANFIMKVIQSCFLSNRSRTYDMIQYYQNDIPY
UniProt Q9UBF8: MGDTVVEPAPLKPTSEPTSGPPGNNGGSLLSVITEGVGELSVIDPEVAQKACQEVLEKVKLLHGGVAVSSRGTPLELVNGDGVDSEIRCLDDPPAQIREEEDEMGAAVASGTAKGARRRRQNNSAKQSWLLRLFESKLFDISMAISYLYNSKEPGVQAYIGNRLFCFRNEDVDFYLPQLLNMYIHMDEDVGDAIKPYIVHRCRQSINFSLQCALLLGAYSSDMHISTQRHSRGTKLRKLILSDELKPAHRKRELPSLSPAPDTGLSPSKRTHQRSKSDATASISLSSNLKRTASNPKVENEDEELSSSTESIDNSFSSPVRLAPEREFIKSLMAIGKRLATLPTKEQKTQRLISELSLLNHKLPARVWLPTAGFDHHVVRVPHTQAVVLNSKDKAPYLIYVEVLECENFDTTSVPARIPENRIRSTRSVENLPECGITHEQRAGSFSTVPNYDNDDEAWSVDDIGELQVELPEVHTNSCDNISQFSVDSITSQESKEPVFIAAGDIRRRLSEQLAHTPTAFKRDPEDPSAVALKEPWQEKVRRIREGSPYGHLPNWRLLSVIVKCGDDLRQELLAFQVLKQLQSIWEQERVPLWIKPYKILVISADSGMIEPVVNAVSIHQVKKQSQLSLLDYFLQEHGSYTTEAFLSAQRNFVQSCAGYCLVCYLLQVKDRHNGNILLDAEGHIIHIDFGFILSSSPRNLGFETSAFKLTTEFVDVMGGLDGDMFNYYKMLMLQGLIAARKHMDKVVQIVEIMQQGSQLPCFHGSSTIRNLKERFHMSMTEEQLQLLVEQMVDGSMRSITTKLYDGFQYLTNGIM
UniProt P53350, whole entry: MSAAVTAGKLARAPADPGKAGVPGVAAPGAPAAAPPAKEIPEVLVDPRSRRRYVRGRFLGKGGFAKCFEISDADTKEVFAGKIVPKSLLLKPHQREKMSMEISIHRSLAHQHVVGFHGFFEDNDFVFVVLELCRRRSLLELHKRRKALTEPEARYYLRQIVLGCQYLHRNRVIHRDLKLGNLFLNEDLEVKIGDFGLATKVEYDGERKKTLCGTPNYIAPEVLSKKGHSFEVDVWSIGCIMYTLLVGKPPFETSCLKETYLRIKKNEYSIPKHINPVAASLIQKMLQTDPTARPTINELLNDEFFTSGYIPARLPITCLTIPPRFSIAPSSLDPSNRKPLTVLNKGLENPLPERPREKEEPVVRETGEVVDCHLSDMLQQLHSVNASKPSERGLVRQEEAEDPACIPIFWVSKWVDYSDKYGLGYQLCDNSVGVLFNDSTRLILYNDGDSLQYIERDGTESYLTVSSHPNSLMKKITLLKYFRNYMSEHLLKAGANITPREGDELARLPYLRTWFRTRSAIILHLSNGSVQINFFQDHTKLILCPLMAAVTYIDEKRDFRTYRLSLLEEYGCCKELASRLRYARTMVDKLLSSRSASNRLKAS
UniProt Q13131: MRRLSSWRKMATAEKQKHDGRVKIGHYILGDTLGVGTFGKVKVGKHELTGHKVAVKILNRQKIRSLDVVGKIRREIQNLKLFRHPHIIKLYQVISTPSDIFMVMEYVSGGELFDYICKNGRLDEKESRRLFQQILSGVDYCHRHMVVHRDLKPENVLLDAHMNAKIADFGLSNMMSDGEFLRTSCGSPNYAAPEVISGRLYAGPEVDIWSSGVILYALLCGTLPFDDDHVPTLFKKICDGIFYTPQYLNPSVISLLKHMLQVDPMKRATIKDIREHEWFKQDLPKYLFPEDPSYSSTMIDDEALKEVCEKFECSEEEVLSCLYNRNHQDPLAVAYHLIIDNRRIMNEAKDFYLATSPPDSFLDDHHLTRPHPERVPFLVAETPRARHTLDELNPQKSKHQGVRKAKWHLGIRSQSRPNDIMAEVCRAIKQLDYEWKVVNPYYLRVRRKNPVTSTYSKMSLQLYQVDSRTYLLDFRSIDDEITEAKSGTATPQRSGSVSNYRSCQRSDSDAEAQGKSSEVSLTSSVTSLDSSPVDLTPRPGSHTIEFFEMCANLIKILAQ

How the values were obtained:
Experiment in all cases: number of time points (of 5) at which kinase-Nluc abundance scored as decreased, DMSO-normalised (count); higher = more persistent destabilization
Settings in all cases: K562; 2-18 h
NTRK3 = NTRK3 (UniProt Q16288)
PAK4 = PAK4 (UniProt O96013)
PBK = PBK (UniProt Q96KB5)
PDGFRB = PDGFRB (UniProt P09619)
PDK1 = PDK1 (UniProt Q15118)
PDPK1 = PDPK1 (UniProt O15530)
PIK4CA = PIK4CA (UniProt P42356)
PIK4CB = PIK4CB (UniProt Q9UBF8)
PLK1 = PLK1 (UniProt P53350)
PRKAA1 = PRKAA1 (UniProt Q13131)

| Compound | number of time points (NTRK3) | number of time points (PAK4) | number of time points (PBK) | number of time points (PDGFRB) | number of time points (PDK1) | number of time points (PDPK1) | number of time points (PIK4CA) | number of time points (PIK4CB) | number of time points (PLK1) | number of time points (PRKAA1) |
| --- | --- | --- | --- | --- | --- | --- | --- | --- | --- | --- |
| Cc1c(NC(=O)OC[C@@H]2COCCN2)cn2ncnc(Nc3ccc4c(cnn4Cc4cccc(F)c4)c3)c12 (10 µM) | 0 | 0 | 0 | 0 | 0 | 0 | 0 | 0 | 0 | 0 |
| Cc1cc2cc(Nc3ccnc(Nc4ccc5[nH]c(C)cc5c4)n3)ccc2[nH]1 (2.5 µM) | 0 | 0 | 0 | 0 | 0 | 0 | 0 | 0 | 0 | 0 |
| CC(C)CN[C@H]1CS(=O)(=O)C[C@@H]1S(=O)(=O)c1ccc(Cl)cc1 (10 µM) | 0 | 0 | 0 | 0 | 0 | 0 | 0 | 0 | 0 | 0 |
| O=C1NC(=O)/C(=C/c2ccc3c(c2)OC(F)(F)O3)S1 (10 µM) | 0 | 0 | 0 | 0 | 0 | 0 | 0 | 0 | 0 | 0 |
| COC1(C(=O)N2Cc3nc(Cl)nc(N[C@H](C)c4cc(N)cc(C(F)(F)F)c4)c3C2)CCOCC1 (10 µM) | 0 | 0 | 0 | 0 | 0 | 0 | 0 | 0 | 0 | 0 |
| COc1cc(N2CCN(C)CC2)ccc1Nc1ncc2c(n1)N(C1CCC1)C(=O)N(c1c(C)cccc1C)C2 (2.5 µM) | 0 | 0 | 0 | 0 | 0 | 0 | 0 | 0 | 0 | 0 |
| O=c1cc(O)cc(/C=C/c2ccc(O)c(O)c2)o1 [Hispidin] (10 µM) | 0 | 0 | 0 | 0 | 0 | 0 | 0 | 0 | 0 | 0 |
| C=CC(=O)Nc1cc2c(Nc3ccc(OCc4ccccn4)c(Cl)c3)ncnc2cc1OCCN1CCOCC1 (10 µM) | 0 | 0 | 0 | 0 | 0 | 0 | 0 | 0 | 0 | 0 |
| Cc1ccc(NC(=S)NNc2c([N+](=O)[O-])cc(C(F)(F)F)cc2[N+](=O)[O-])cc1Cl (10 µM) | 0 | 0 | 0 | 0 | 0 | 0 | 0 | 0 | 0 | 0 |
| O=C(Nc1nc2ccccc2[nH]1)c1cccc(-n2cccc2)c1 (10 µM) | 0 | 0 | 0 | 0 | 0 | 0 | 0 | 0 | 0 | 0 |
| CNCc1ccccc1-c1csc([C@@H](C)Nc2nc(C)nc3cc(OC)c(OC)cc23)c1 (2.5 µM) | 0 | 0 | 0 | 0 | 0 | 0 | 0 | 0 | 2 | 0 |
| COc1ccc(C2CC(c3ccccc3)=NN2c2ccc(S(N)(=O)=O)cc2)cc1 (stereo not given) (10 µM) | 0 | 0 | 0 | 0 | 0 | 0 | 0 | 0 | 0 | 0 |
| O=C(Nc1ccc2[nH]nc(-c3ccncc3)c2c1)[C@@H]1CCN(CC(=O)N2CCN(c3ccc(-c4ncccn4)cc3)CC2)C1 (2.5 µM) | 0 | 0 | 0 | 0 | 0 | 0 | 0 | 0 | 0 | 0 |
| C=CC(=O)Nc1cccc(C)c1Nc1ncc2cc(-c3c(Cl)c(OC)cc(OC)c3Cl)ccc2n1 (2.5 µM) | 0 | 0 | 0 | 0 | 0 | 2 | 0 | 0 | 0 | 0 |
| Cc1cc(Nc2cc3ncccc3c(N[C@@H]3C[C@H]4CC[C@@H](C3)N4CCC#N)n2)n[nH]1 [Izencitinib] (10 µM) | 0 | 0 | 0 | 0 | 0 | 0 | 0 | 0 | 0 | 0 |
| COc1ccc(-c2ccc3c(N4CCOC[C@@H]4C)nc(N4CCOC[C@@H]4C)nc3n2)cc1CO (2.5 µM) | 4 | 0 | 0 | 3 | 0 | 4 | 4 | 3 | 3 | 3 |
| CCN1CCN(Cc2ccc(Nc3ncc(F)c(-c4cc(F)c5nc(CO)n(C(C)C)c5c4)n3)nc2)CC1 [Abemaciclib metabolite M20] (2 µM) | 0 | 0 | 0 | 0 | 0 | 0 | 0 | 0 | 0 | 0 |
| CN(C)CCN(Cc1ccc(Cl)cc1)c1ccccn1 [Chloropyramine hydrochloride] (10 µM) | 0 | 0 | 0 | 0 | 0 | 0 | 0 | 0 | 0 | 0 |
| CC(=NNC(=O)c1ccc(C)c(Br)c1)c1ccc(O)cc1O [mTOR inhibitor-1] (2.5 µM) | 0 | 0 | 0 | 0 | 0 | 0 | 0 | 0 | 0 | 0 |
| c1cc2c(cc1O[C@H]1OC[C@H]3[C@@H]1CO[C@@H]3c1ccc3c(c1)OCO3)OCO2 [Sesamolin] (10 µM) | 0 | 0 | 0 | 0 | 0 | 0 | 0 | 0 | 0 | 0 |
| COc1ncc(-c2nc(N3CCOCC3)nc3c(CN4CCC(C(C)(C)O)CC4)cc(F)cc23)cc1NS(C)(=O)=O [Linperlisib] (10 µM) | 0 | 0 | 0 | 0 | 0 | 0 | 0 | 0 | 0 | 0 |
| CN1C(=O)C(Cc2c[nH]c3ccccc23)NC1=S (stereo not given) [Necrostatin-1] (10 µM) | 0 | 0 | 0 | 0 | 0 | 0 | 0 | 0 | 0 | 0 |
| Cc1cc([C@H](C)Nc2ccccc2)c2oc(N3CCOCC3)cc(=O)c2c1 (10 µM) | 0 | 0 | 0 | 0 | 0 | 0 | 0 | 0 | 0 | 0 |
| Nc1ncc(-c2cccc(N3CCNCC3)c2)cc1C(=O)Nc1ccncc1 [PKC-iota inhibitor 1] (10 µM) | 0 | 0 | 0 | 0 | 0 | 0 | 0 | 0 | 0 | 0 |

| Compound | number of time points (NTRK3) | number of time points (PAK4) | number of time points (PBK) | number of time points (PDGFRB) | number of time points (PDK1) | number of time points (PDPK1) | number of time points (PIK4CA) | number of time points (PIK4CB) | number of time points (PLK1) | number of time points (PRKAA1) |
| --- | --- | --- | --- | --- | --- | --- | --- | --- | --- | --- |
| Nc1ncnc2c1ncn2[C@@H]1O[C@H](CO)C[C@H]1O [Cordycepin] (10 µM) | 0 | 0 | 0 | 0 | 0 | 0 | 0 | 0 | 0 | 0 |
| O=C(NCCCNC(=O)Nc1cccc(C2=NCCN2)c1)Nc1cccc(C2=NCCN2)c1 [p32 Inhibitor M36] (10 µM) | 0 | 0 | 0 | 0 | 0 | 0 | 0 | 0 | 0 | 0 |
| CC(C)=CCC[C@](C)(O[C@@H]1O[C@H](CO)[C@@H](O)[C@H](O)[C@H]1O)[C@H]1CC[C@]2(C)[C@@H]1[C@H](O)C[C@@H]1[C@@]3(C)CC[C@H](O)C(C)(C)[C@@H]3[C@@H](O[C@@H]3O[C@H](CO)[C@@H](O)[C@H](O)[C@H]3O[C@@H]3O[C@@H](C)[C@H](O)[C@@H](O)[C@H]3O)C[C@]12C [Ginsenoside Re] (10 µM) | 0 | 0 | 0 | 0 | 0 | 0 | 0 | 0 | 0 | 0 |
| Cc1c(CN2CCN(C(=O)[C@H](C)O)CC2)sc2c(N3CCOCC3)nc(-c3cnc(N)nc3)nc12 [Apitolisib] (10 µM) | 4 | 0 | 0 | 0 | 0 | 2 | 0 | 0 | 0 | 1 |
| N#Cc1c(-c2ccccc2)cc(-c2cc(Br)ccc2O)[nH]c1=O (10 µM) | 0 | 0 | 0 | 0 | 0 | 0 | 0 | 0 | 0 | 0 |
| CO[C@H]1C[C@@H]2CC[C@@H](C)[C@@](O)(O2)C(=O)C(=O)N2CCCC[C@H]2C(=O)O[C@H]([C@H](C)C[C@@H]2CC[C@@H](O)[C@H](OC)C2)CC(=O)[C@H](C)/C=C(\C)[C@@H](O)[C@@H](OC)C(=O)[C@H](C)C[C@H](C)/C=C/C=C/C=C/1C [Rapamycin] (10 µM) | 0 | 0 | 0 | 0 | 0 | 0 | 0 | 0 | 0 | 0 |
| CCn1c(=O)c(-c2ccc(-c3cncs3)cc2Cl)cc2cnc(Nc3ccc(N4CCN(C)CC4)cc3)nc21 (2.5 µM) | 0 | 0 | 0 | 0 | 0 | 0 | 0 | 0 | 0 | 0 |
| CC(C)=CC[C@H](O)C1=CC(=O)c2c(O)ccc(O)c2C1=O [(-)-Alkannin] (2.5 µM) | 0 | 0 | 0 | 0 | 0 | 0 | 0 | 0 | 0 | 0 |
| COc1cc(N2CCC(N3CCN(C)CC3)CC2)ccc1Nc1ncc(Cl)c(Nc2ccccc2P(C)(C)=O)n1 [Brigatinib] (2 µM) | 0 | 0 | 0 | 0 | 0 | 0 | 0 | 0 | 0 | 0 |
| O=C1c2ccc(Nc3ccc(F)cc3F)cc2CCc2ccc(OC[C@H](O)CO)cc21 [Skepinone-L] (2.5 µM) | 0 | 0 | 0 | 0 | 0 | 0 | 0 | 0 | 0 | 0 |
| CN(CC(=O)N(Cc1ccc(C2CCCCC2)cc1)c1ccc(C(=O)O)cc1)S(=O)(=O)c1c(F)c(F)c(F)c(F)c1F (2.5 µM) | 0 | 0 | 0 | 0 | 0 | 0 | 0 | 0 | 0 | 0 |
| Cc1cc(NC(=O)c2cccc(NC(=O)/C=C/CN(C)C)c2)ccc1Nc1nccc(-c2cccnc2)n1 (10 µM) | 0 | 0 | 0 | 0 | 0 | 0 | 0 | 0 | 0 | 0 |
| O=C(NCCO)c1ccc2c(c1)nc(Nc1cccc(Cl)c1)c1ccncc12 [CK2 inhibitor 2] (10 µM) | 0 | 0 | 0 | 0 | 0 | 0 | 0 | 0 | 0 | 0 |
| O=C(Nc1cccnc1)c1cc(C(=O)c2c(F)cccc2Br)c[nH]1 (10 µM) | 0 | 0 | 0 | 0 | 0 | 0 | 0 | 0 | 0 | 0 |
| Cc1ccc(-c2c(C(=O)CF)n(CCCO)c3ncnc(N)c23)cc1 (10 µM) | 0 | 0 | 0 | 0 | 0 | 0 | 0 | 0 | 0 | 0 |
| CC/C=C\C/C=C\C/C=C\CCCCCCCC(=O)O [α-Linolenic acid] (10 µM) | 0 | 0 | 0 | 0 | 0 | 0 | 0 | 0 | 0 | 0 |
| Cc1cc(Nc2nc(N[C@@H](C)c3ccc(F)cc3)c(C#N)cc2F)n[nH]1 (10 µM) | 0 | 0 | 0 | 0 | 0 | 1 | 0 | 0 | 0 | 0 |
| CCN(CC)S(=O)(=O)c1ccc(OC)c(N2CCN(C(=O)c3ccc(F)cc3C(F)(F)F)CC2)c1 (10 µM) | 0 | 0 | 0 | 0 | 0 | 0 | 0 | 0 | 0 | 0 |
| COc1ccc(C(=O)Nc2sc3c(c2C(N)=O)CCCC3)cc1OC (10 µM) | 0 | 0 | 0 | 0 | 0 | 0 | 0 | 0 | 0 | 0 |
| CNC(=O)Nc1ccc(-c2cc(-c3ccnc(Nc4ccc(C)c(S(=O)(=O)N(C)C)c4)n3)ccn2)cc1 [hSMG-1 inhibitor 11e] (2.5 µM) | 1 | 0 | 0 | 0 | 0 | 1 | 0 | 1 | 0 | 0 |
| Cn1cc(-c2ccc(CNc3cc(-c4cnc5cc(OCCCN6CCCC6)ccn45)ncn3)cc2)cn1 (10 µM) | 0 | 0 | 0 | 0 | 0 | 0 | 0 | 0 | 0 | 0 |
| Cn1nccc1Nc1nccc(-c2cc3c(s2)C(C)(C)N(CCN2CCOCC2)C3=O)n1 (10 µM) | 0 | 0 | 0 | 0 | 0 | 0 | 0 | 0 | 0 | 0 |
| CC[C@@]1(c2ccccc2)C2=C(CC(C)(C)CC2=O)Nc2[nH]ncc21 (10 µM) | 0 | 0 | 0 | 0 | 0 | 0 | 0 | 0 | 0 | 0 |
| CC(=O)c1c(C)c2cnc(Nc3ccc(N4CCN(CCCCNC(=O)COc5cccc6c5C(=O)N(C5CCC(=O)NC5=O)C6=O)CC4)cn3)nc2n(C2CCCC2)c1=O (stereo not given) (10 µM) | 0 | 0 | 0 | 0 | 0 | 0 | 0 | 0 | 0 | 0 |

A different layout for part of the listing above:
Compound,number of time points (NTRK3),number of time points (PAK4),number of time points (PBK),number of time points (PDGFRB),number of time points (PDK1),number of time points (PDPK1),number of time points (PIK4CA),number of time points (PIK4CB),number of time points (PLK1),number of time points (PRKAA1)
Cc1c(CN2CCN(C(=O)[C@H](C)O)CC2)sc2c(N3CCOCC3)nc(-c3cnc(N)nc3)nc12 [Apitolisib] (10 µM),4,0,0,0,0,2,0,0,0,1
N#Cc1c(-c2ccccc2)cc(-c2cc(Br)ccc2O)[nH]c1=O (10 µM),0,0,0,0,0,0,0,0,0,0
CO[C@H]1C[C@@H]2CC[C@@H](C)[C@@](O)(O2)C(=O)C(=O)N2CCCC[C@H]2C(=O)O[C@H]([C@H](C)C[C@@H]2CC[C@@H](O)[C@H](OC)C2)CC(=O)[C@H](C)/C=C(\C)[C@@H](O)[C@@H](OC)C(=O)[C@H](C)C[C@H](C)/C=C/C=C/C=C/1C [Rapamycin] (10 µM),0,0,0,0,0,0,0,0,0,0
